Results are given in words; binding and its absence hold for the method and conditions named. In cells and extracts the contact can be indirect. Some entries that bind do so weakly or less than the wild type.

Chains of the proteins cited; added tags and fusions are not shown.
UniProt P70452: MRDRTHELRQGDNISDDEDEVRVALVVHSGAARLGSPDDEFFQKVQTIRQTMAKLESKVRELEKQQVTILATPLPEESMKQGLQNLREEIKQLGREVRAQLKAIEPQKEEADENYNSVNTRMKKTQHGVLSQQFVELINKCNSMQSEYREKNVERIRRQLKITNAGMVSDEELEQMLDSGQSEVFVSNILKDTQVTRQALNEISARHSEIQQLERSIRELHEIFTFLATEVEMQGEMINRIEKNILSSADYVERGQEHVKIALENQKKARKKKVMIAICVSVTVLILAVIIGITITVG
UniProt Q8K1M6: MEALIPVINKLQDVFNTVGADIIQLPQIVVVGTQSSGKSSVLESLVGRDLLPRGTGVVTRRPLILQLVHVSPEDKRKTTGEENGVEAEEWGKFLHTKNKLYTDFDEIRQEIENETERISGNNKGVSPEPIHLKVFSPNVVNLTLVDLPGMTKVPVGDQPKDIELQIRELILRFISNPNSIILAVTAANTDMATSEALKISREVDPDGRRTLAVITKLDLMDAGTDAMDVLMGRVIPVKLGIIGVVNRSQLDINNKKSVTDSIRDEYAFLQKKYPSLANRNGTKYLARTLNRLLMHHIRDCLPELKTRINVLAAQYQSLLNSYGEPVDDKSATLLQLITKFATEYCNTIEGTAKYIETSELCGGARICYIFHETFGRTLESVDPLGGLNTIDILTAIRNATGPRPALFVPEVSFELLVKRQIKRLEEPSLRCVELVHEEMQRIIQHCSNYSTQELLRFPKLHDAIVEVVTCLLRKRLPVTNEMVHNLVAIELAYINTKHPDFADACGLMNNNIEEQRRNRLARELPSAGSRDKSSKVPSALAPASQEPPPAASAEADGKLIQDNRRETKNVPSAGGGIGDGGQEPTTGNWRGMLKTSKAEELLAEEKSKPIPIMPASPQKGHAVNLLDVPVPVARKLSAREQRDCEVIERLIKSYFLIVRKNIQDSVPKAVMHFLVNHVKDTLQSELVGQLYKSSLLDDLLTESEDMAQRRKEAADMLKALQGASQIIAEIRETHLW

Test [1] addresses Syntaxin 4 (STX4) (mouse (endogenous in hindlimb skeletal muscle)) (UniProt P70452). The test can be described thus: co-IP; mouse muscle mitochondrial fractions (0.5 mg protein per reaction) incubated with 0.5 µg STX4 antibody overnight at 4 °C, Protein-G agarose beads 2 h; immunoblot for Drp1; IgG control. Background: In western blotting, separated proteins are transferred to a membrane and probed.

Test [2] shares this target. Nature of the test: co-IP; 3 mg mouse whole-hindlimb extract (WT or skmSTX4-iKO) incubated with 3 µg STX4 antibody overnight at 4 °C, Protein-G agarose beads 2 h, washed three times with lysis buffer; immunoblot for Drp1; IgG control.

Consider “dynamin-related protein (Drp1) (from UniProt Q8K1M6 1-736)”, for which the binding entry in test [1] and in test [2] was “binds” each time.

The values are drawn from article PMC8776765.
